2 molecules from article PMC5037378 can be followed below.

Chains of the proteins cited; added tags and fusions are not shown. Residues count along the entry.
UniProt P13608, residues 17-2364: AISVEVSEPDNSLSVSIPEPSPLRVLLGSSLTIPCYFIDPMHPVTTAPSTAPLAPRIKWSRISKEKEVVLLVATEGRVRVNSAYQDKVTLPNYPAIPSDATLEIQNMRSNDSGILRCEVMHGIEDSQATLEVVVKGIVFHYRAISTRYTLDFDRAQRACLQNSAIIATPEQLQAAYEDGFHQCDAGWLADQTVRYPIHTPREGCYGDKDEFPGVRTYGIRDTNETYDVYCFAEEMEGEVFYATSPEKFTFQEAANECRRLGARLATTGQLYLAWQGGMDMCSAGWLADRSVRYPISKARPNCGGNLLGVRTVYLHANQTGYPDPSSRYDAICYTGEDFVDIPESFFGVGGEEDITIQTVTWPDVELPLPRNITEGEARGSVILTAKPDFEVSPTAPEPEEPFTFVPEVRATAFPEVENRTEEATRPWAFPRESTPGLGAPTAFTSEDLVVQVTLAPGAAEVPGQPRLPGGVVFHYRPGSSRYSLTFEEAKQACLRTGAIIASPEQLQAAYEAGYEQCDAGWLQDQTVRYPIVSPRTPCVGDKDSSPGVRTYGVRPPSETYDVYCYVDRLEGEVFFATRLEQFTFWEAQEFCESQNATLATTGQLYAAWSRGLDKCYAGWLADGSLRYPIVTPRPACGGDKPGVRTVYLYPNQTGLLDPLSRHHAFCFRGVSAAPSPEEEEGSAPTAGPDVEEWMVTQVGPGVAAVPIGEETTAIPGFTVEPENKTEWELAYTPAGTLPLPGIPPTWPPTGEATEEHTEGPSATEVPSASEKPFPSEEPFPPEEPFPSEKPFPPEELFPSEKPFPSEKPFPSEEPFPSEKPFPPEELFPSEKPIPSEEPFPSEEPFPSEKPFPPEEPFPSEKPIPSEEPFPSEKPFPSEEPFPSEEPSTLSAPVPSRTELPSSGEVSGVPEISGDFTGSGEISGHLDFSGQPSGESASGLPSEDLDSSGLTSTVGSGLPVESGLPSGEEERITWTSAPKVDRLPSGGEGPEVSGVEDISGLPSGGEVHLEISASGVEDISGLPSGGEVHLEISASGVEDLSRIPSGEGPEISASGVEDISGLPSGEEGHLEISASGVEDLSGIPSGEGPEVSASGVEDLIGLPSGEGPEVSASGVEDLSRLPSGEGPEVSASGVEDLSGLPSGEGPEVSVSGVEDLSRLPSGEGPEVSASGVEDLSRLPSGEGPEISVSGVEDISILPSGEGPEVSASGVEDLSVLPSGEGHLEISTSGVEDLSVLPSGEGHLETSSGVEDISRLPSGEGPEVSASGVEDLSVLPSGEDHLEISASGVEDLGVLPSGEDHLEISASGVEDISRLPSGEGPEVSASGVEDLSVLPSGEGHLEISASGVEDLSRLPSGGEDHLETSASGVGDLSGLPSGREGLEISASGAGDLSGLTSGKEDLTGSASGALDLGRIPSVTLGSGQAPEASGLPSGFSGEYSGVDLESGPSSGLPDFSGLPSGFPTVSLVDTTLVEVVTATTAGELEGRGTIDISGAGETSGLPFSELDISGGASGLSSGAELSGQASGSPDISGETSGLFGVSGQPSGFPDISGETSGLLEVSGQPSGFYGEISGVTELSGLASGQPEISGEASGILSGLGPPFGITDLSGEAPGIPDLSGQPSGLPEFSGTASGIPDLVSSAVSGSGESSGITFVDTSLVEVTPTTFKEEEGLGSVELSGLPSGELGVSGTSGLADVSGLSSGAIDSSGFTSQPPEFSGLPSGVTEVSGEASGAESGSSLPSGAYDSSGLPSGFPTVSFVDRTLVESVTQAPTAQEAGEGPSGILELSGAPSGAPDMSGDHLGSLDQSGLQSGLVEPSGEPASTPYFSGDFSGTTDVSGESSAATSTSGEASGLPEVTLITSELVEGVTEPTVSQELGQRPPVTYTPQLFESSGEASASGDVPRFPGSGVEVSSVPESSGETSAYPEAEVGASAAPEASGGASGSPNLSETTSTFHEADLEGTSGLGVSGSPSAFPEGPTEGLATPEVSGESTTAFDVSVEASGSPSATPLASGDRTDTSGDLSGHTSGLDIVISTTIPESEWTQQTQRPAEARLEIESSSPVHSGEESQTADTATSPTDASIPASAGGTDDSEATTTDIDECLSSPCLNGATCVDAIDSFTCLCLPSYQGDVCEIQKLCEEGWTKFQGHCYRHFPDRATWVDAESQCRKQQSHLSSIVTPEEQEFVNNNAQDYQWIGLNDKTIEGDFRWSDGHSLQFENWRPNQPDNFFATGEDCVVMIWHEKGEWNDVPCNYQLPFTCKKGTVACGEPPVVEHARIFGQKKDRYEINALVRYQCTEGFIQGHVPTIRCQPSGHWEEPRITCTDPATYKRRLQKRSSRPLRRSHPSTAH

For assay [1], the target named is Aggrecan (UniProt P13608). The assay is described as follows: ELISA; solid phase binding assay: wells coated with aggrecan 10 μg/ml in PBS; PTPσ-Fc recombinants (80 nM) mixed with different concentrations of HB-GAM in 1% BSA, 0.05% Tween-20 in PBS, overnight at 4 °C; bound PTPσ detected with HRP-conjugated goat anti-human IgG (Fc part), OPD; both purified.
For assay [2], the target named is T1, HB-GAM (heparin-binding growth-associated molecule; pleiotrophin) (rat) (UniProt P63090).
T1 sequence: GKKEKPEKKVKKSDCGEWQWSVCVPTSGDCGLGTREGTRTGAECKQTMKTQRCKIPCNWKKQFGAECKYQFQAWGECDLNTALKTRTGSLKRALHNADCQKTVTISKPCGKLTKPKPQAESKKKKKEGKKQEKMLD
Put plainly: SPR; Biacore T100; HB-GAM immobilised on a CM5 chip, blank channel as reference; 20 μl/min, 60 s injections; PTPσ injected at 1 μM and 5 μM; both purified.

These are yes or no findings as the source states them, for the method shown. Some binding calls cover weakened binding; strength is not graded here. Where a sequence is shown, tags or fusion partners need not be part of it.

B1: HB-GAM (heparin-binding growth-associated molecule; pleiotrophin) (protein, UniProt P63090 33-168)
chain: GKKEKPEKKVKKSDCGEWQWSVCVPTSGDCGLGTREGTRTGAECKQTMKTQRCKIPCNWKKQFGAECKYQFQAWGECDLNTALKTRTGSLKRALHNADCQKTVTISKPCGKLTKPKPQAESKKKKKEGKKQEKMLD
For the molecule B1, in assay [1], the binding result is “binds”.

B2: PTPσ (protein tyrosine phosphatase sigma) N-terminal extracellular part with the three Ig domains, Fc-tagged, wild type (Fc fusion, UniProt B0V2N1 30-321)
chain: EEPPRFIREPKDQIGVSGGVASFVCQATGDPKPRVTWNKKGKKVNSQRFETIDFDESSGAVLRIQPLRTPRDENVYECVAQNSVGEITIHAKLTVLREDQLPPGFPNIDMGPQLKVVERTRTATMLCAASGNPDPEITWFKDFLPVDPSASNGRIKQLRSGALQIESSEETDQGKYECVATNSAGVRYSSPANLYVRVRRVAPRFSILPMSHEIMPGGNVNITCVAVGSPMPYVKWMQGAEDLTPEDDMPVGRNVLELTDVKDSANYTCVAMSSLGVIEAVAQITVKSLPKA
In the case of B2, the binding result in assay [2] was “no binding (tested: 1 μM and 5 μM)”; in assay [1] it was “binds”.
